Measurements reported in PubChem BioAssay AID504774 (Drosophila RNAi Screening Center, 2011).

- Assay: 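Fly genes whose loss alters survival after alkylation damage to DNA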 (primary screen)
- Cells: Drosophila Kc167 cells
- Reagents: long dsRNA against Drosophila genes, about 0.25 µg dsRNA per well
- Duration: about 6 days: 3 days knock-down, then 3 days with or without MMS
- Treatment: methyl methanesulphonate 0.004% (w/v) for 3 days after knock-down
- Measured: 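ATP-dependent luminescence as a measure of live cells in MMS-exposed wells, quantile normalised within each plate, with replicate values also given as a mean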
- Direction: mean viability with MMS and viability with MMS: higher = more surviving cells after MMS
The screen tested about 23,000 reagents; this is an unselected part of those with a known target gene and a result. 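Values are quantile-normalised luminescence on an arbitrary scale; higher means more cells surviving MMS.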 The numbers tell different reagents against one gene apart. A plus sign joins genes that one reagent is predicted to hit. No sequences are given here.

target gene	reagent no.	mean viability with MMS	viability with MMS, replicate 1	viability with MMS, replicate 2
Fbw5 (GeneID 33854)	1	3.53e6	4.16e6	3.84e6
CG15025 (GeneID 42328)	1	3.46e6	4.03e6	3.84e6
Hsp60A (GeneID 32045)	1	3.77e6	4.11e6	4.58e6
witty (GeneID 34145)	1	3.61e6	4.17e6	4.03e6
witty (GeneID 34145)	2	3.48e6	4.02e6	3.91e6
RagA-B (GeneID 41071)	1	3.36e6	3.81e6	3.78e6
HPS4 (GeneID 37009)	1	3.43e6	3.89e6	3.86e6
beg (GeneID 39910)	1	3.59e6	4.12e6	4.02e6
Gclm (GeneID 248194)	1	3.14e6	3.68e6	3.65e6
CG15047 (GeneID 32845)	1	3.04e6	3.51e6	3.51e6
CG15047 (GeneID 32845)	2	3.45e6	3.98e6	3.90e6
CG15247 (GeneID 31919)	1	3.62e6	4.12e6	4.07e6
Rpt6R (GeneID 43635)	1	3.69e6	4.06e6	4.28e6
Spn77Ba (GeneID 40234)	1	3.60e6	4.10e6	4.06e6
Drp1 (GeneID 33445)	1	3.33e6	3.54e6	3.88e6
CG10097 + CG10096	1	3.76e6	4.37e6	4.17e6
CG10097 + CG10096	2	3.57e6	3.99e6	4.09e6
GstD3 (GeneID 48336)	1	3.51e6	3.95e6	4.02e6
c(2)M (GeneID 34964)	1	3.71e6	4.22e6	4.25e6
CG7763 (GeneID 36235)	1	3.60e6	3.98e6	4.07e6
14-3-3epsilon (GeneID 42186)	1	3.43e6	3.99e6	3.82e6
CG1368 (GeneID 32361)	1	3.36e6	4.10e6	3.52e6
CG42650 (GeneID 10178825)	1	3.73e6	4.30e6	4.05e6
Nrx-1 (GeneID 42646)	1	3.64e6	4.09e6	4.12e6
Pex7 (GeneID 38994)	1	3.62e6	4.24e6	3.98e6
CG8399 (GeneID 36768)	1	3.50e6	3.98e6	3.95e6
CG34409 (GeneID 5740854)	1	3.54e6	4.05e6	4.00e6
CG34409 (GeneID 5740854)	2	3.55e6	4.03e6	4.04e6
nAChRalpha2 (GeneID 42919)	1	3.50e6	3.93e6	4.01e6
CG43127 (GeneID 8673982)	1	3.81e6	4.10e6	4.34e6
tinc (GeneID 42148)	1	3.71e6	4.23e6	4.18e6
tinc (GeneID 42148)	2	3.65e6	4.25e6	4.03e6
tinc (GeneID 42148)	3	3.38e6	3.85e6	3.84e6
tinc (GeneID 42148)	4	3.51e6	3.98e6	3.98e6
Slob (GeneID 34038)	1	3.52e6	4.10e6	3.88e6

Targets listed so far whose target name starts with H or h (2):
target gene	reagent no.	mean viability with MMS	viability with MMS, replicate 1	viability with MMS, replicate 2
Hsp60A (GeneID 32045)	1	3.77e6	4.11e6	4.58e6
HPS4 (GeneID 37009)	1	3.43e6	3.89e6	3.86e6

Continued:
target gene	reagent no.	mean viability with MMS	viability with MMS, replicate 1	viability with MMS, replicate 2
Cyp6t3 (GeneID 36318)	1	3.58e6	3.83e6	4.10e6
inaD (GeneID 37629)	1	3.60e6	4.22e6	3.95e6
dpr10 (GeneID 39180)	1	3.66e6	4.10e6	4.13e6
dpr10 (GeneID 39180)	2	3.64e6	4.23e6	3.98e6
dpr10 (GeneID 39180)	3	3.56e6	4.00e6	4.08e6
dpr10 (GeneID 39180)	4	3.53e6	4.01e6	3.99e6
comr (GeneID 37492)	1	3.57e6	4.07e6	4.04e6
H2.0 (GeneID 33841)	1	3.63e6	3.75e6	3.71e6
H2.0 (GeneID 33841)	2	3.77e6	4.13e6	4.27e6
Gss1 + Gss2	1	3.72e6	4.18e6	4.15e6
Gss1 + Gss2	2	3.62e6	4.08e6	4.12e6
RPA3 (GeneID 32113)	1	3.62e6	4.06e6	4.13e6
RpL7-like + CG34164	1	3.57e6	3.85e6	3.86e6
RpL7-like + CG34164	2	3.69e6	4.21e6	4.10e6
ems (GeneID 41697)	1	3.59e6	4.01e6	4.15e6
Spn88Eb (GeneID 41829)	1	3.42e6	3.86e6	3.84e6
CG5614 (GeneID 41906)	1	3.49e6	4.21e6	4.18e6
Dci (GeneID 38100)	1	1.82e6	4.13e6	
Nup54 (GeneID 36360)	1	3.41e6	3.86e6	3.81e6
CG17085 (retired record) (GeneID 34501)	1	3.62e6	4.54e6	3.68e6
CG17085 (retired record) (GeneID 34501)	2	3.66e6	4.06e6	4.25e6
CG30392 (GeneID 246587)	1	3.50e6	3.97e6	3.98e6
Dhdds (GeneID 31708)	1	3.55e6	4.02e6	4.06e6
CIA30 (GeneID 43503)	1	3.59e6	4.03e6	4.10e6
CG34109 (GeneID 4379890)	1	3.69e6	4.13e6	4.22e6
CG34109 (GeneID 4379890)	2	3.57e6	4.09e6	4.01e6
CG34109 (GeneID 4379890)	3	3.52e6	3.90e6	4.10e6
Spn28Da (GeneID 34082)	1	3.57e6	4.06e6	4.05e6
CG13170 (GeneID 36325)	1	3.80e6	4.82e6	4.01e6
Acat2 (GeneID 38147)	1	3.68e6	4.11e6	4.18e6
CG17929 (GeneID 41978)	1	3.51e6	3.97e6	3.98e6
Trpgamma (GeneID 34991)	1	3.52e6	3.97e6	4.03e6
CG33098 (GeneID 326253)	1	3.51e6	4.03e6	3.95e6
pdm2 (GeneID 34673)	1	3.55e6	4.07e6	3.99e6
pdm2 (GeneID 34673)	2	3.35e6	3.74e6	3.84e6
pdm2 (GeneID 34673)	3	3.46e6	3.93e6	3.92e6
a (GeneID 43852)	1	2.85e6	3.58e6	3.58e6
a (GeneID 43852)	2	3.45e6	3.98e6	3.83e6
CG12539 (GeneID 32412)	1	3.50e6	3.96e6	3.99e6
CG42726 + CG42727	1	3.47e6	3.89e6	3.95e6
CG14062 (GeneID 43389)	1	3.67e6	4.36e6	3.96e6
CG8654 (GeneID 37275)	1	3.65e6	4.23e6	4.06e6
bug (GeneID 36749)	1	3.62e6	4.11e6	4.12e6
ATPsynbeta (GeneID 43829)	1	3.38e6	3.84e6	3.83e6
CG15473 (GeneID 31401)	1	3.59e6	4.19e6	3.96e6
trio (GeneID 43974)	1	3.37e6	3.73e6	3.85e6
trio (GeneID 43974)	2	3.20e6	3.75e6	3.69e6
trio (GeneID 43974)	3	3.60e6	3.97e6	4.17e6
CG4045 (GeneID 31176)	1	3.56e6	4.10e6	3.98e6
Mgat3 (GeneID 318981)	1	3.41e6	3.97e6	3.75e6
CG13681 (retired record) (GeneID 38892)	1	3.50e6	4.00e6	3.96e6
CG13681 (retired record) (GeneID 38892)	2	3.65e6	4.14e6	4.07e6
CG13681 (retired record) (GeneID 38892)	3	3.45e6	3.90e6	3.93e6
CG13681 (retired record) (GeneID 38892)	4	3.53e6	4.05e6	3.96e6
CG13681 (retired record) (GeneID 38892)	5	3.43e6	3.90e6	3.88e6
CG13681 (retired record) (GeneID 38892)	6	3.52e6	3.97e6	4.00e6
